In publication PMC7001992:

Legend:
[1] = target: T1, Myc-tagged Makorin 1 (Mkrn1) (Drosophila melanogaster) (UniProt Q9VP20); test: affinity purification with mass spectrometry; Myc-Mkrn1, Myc-Mkrn1^RING or Myc-GFP (control) expressed in S2R+ cells, Myc IP from lysate, LC-MS/MS with label-free quantification, 3 technical replicates; cutoff log2 fold change ≥ 2 and FDR ≤ 0.05
T1 sequence: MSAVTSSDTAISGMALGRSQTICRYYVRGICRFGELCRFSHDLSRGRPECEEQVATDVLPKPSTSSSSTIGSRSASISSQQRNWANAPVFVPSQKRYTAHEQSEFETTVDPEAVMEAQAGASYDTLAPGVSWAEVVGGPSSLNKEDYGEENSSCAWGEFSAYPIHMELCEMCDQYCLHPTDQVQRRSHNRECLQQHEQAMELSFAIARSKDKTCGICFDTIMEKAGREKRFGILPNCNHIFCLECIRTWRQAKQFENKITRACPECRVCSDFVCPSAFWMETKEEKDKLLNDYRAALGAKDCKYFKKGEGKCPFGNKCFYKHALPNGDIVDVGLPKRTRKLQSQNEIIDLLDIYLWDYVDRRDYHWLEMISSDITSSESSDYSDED

[2] = target: T2, Myc-tagged Mkrn1 carrying a point mutation in the RING domain (Myc-Mkrn1^RING) (Drosophila melanogaster) (UniProt Q9VP20); test: as above
T2 sequence: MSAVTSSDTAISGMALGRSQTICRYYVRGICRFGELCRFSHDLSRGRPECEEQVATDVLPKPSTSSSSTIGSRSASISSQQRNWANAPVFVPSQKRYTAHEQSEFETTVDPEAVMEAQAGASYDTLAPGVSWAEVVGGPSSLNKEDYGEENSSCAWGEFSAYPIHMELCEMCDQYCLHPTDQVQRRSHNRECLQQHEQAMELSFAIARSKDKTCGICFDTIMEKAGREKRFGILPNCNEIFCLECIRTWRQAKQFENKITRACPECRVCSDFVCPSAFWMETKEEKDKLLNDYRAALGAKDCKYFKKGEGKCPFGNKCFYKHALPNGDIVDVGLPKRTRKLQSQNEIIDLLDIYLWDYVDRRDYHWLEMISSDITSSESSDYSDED

B1: eIF4E (protein, UniProt P48598 1-259)
chain: MQSDFHRMKNFANPKSMFKTSAPSTEQGRPEPPTSAAAPAEAKDVKPKEDPQETGEPAGNTATTTAPAGDDAVRTEHLYKHPLMNVWTLWYLENDRSKSWEDMQNEITSFDTVEDFWSLYNHIKPPSEIKLGSDYSLFKKNIRPMWEDAANKQGGRWVITLNKSSKTDLDNLWLDVLLCLIGEAFDHSDQICGAVINIRGKSNKISIWTADGNNEEAALEIGHKLRDALRLGRNNSLQYQLHKDTMVKQGSNVKSIYTL
In the case of B1, the binding [1] is reported as “no binding” and the binding [2] is reported as “no binding”.

Results are given in words; binding and its absence hold for the method and conditions named. Binding seen in cells or lysates may run through a third protein. These calls come from enrichment with a bait or labelling near it, and not all partners need be listed. No binding means not detected with the bait. Tags and fused reporters may be left off the sequences shown.
